Measured values from paper PMC12559223 (Nature Communications, 2025).
Plain letter strings leave the end groups untold.

test: peptide synthesis; details: whole synthesis

Sequence | final HPLC purity [%]
YADLGKAARDVFTKG | >98
YADLGKSAADVFTKG | 95
AADLGKSARDVFTKG | >98
YADLAKSARDVFTKG | >98
YADLGKSARDAFTKG | 98
YADLGKSARDVATKG | 96
YADLGKSARAVFTKG | >98
YADAGKSARDVFTKG | >98
YADLGASARDVFTKG | 95
YAALGKSARDVFTKG | >98
YADLGKSARDVFAKG | 98
